Measured values from patent publication US20180219160A1, “BENZOBIS(THIADIAZOLE) DERIVATIVE, INK COMPRISING THE SAME, AND ORGANIC ELECTRONIC DEVICE USING THE SAME” (UBE INDUSTRIES, LTD., priority 2014, published 2018).

Assay: Organic TFT (bottom gate-top contact) transfer characteristics / field-effect mobility
Settings: for semiconductor characteristics of the organic TFT (n-type / p-type): transfer characteristics, drain voltage 20-100 V as in each Example E, no p-type characteristics
[1] = PVP substrate, spin-coating 0.1 wt % in chloroform under nitrogen, heated 180° C. 35 min, drain voltage 80 V
[2] = bare substrate, spin-coating 0.1 wt % in chloroform under nitrogen, heated 180° C. 35 min, drain voltage 80 V
[3] = bare substrate, spin-coating 0.1 wt % in chloroform under nitrogen, heated 180° C. 35 min, drain voltage 100 V

| Structure (SMILES) | field-effect mobility [1] | field-effect mobility [2] | semiconductor characteristics of the organic TFT (n-type / p-type) | field-effect mobility [3] | also measured |
| --- | --- | --- | --- | --- | --- |
| CCCCCCCCN1C(=O)c2cc(-c3c4c(c(-c5cc6c(s5)C(=O)N(CCCCCCCC)C6=O)c5nsnc35)N=S=N4)sc2C1=O [Compound (12-8)] | 9.6×10^−1 cm^2/Vs | 1.0×10^0 cm^2/Vs | n-type semiconductor characteristics |  | field-effect mobility (bare substrate, spin-coating 0.1 wt % in chloroform in the atmosphere, heated 180° C. 35 min, drain voltage 100 V): 8.3×10^−1 cm^2/Vs |
| CCCCCCN1C(=O)c2cc(-c3c4c(c(-c5cc6c(s5)C(=O)N(CCCCCC)C6=O)c5nsnc35)N=S=N4)sc2C1=O [Compound (12-6)] |  |  | n-type semiconductor characteristics | 3.9×10^−1 cm^2/Vs | field-effect mobility (PVP substrate, spin-coating 0.1 wt % in chloroform in the atmosphere, heated 180° C. 35 min, drain voltage 80 V): 6.3×10^−1 cm^2/Vs; field-effect mobility (PVP substrate, spin-coating 0.1 wt % in chloroform under nitrogen, heated 120° C. 35 min, drain voltage 100 V): 2.9×10^−1 cm^2/Vs; field-effect mobility (as Example E-1b (bare substrate, 0.2 wt % in chloroform), after organic TFT left in the atmosphere for 28 days): 3.9×10^−1 cm^2/Vs; field-effect mobility (bare substrate, spin-coating 0.1 wt % in chloroform in the atmosphere, heated 120° C. 35 min, drain voltage 100 V): 3.2×10^−1 cm^2/Vs; field-effect mobility (bare substrate, spin-coating 0.2 wt % in chloroform under nitrogen, heated 180° C. 35 min, drain voltage 100 V): 3.6×10^−1 cm^2/Vs |
| O=C1c2cc(-c3c4c(c(-c5cc6c(s5)C(=O)N(CC(F)(F)C(F)(F)C(F)(F)F)C6=O)c5nsnc35)N=S=N4)sc2C(=O)N1CC(F)(F)C(F)(F)C(F)(F)F [Compound (12-HepFBu)] |  |  | n-type semiconductor characteristics |  | field-effect mobility (OTS-modified substrate, vacuum deposition, drain voltage 100 V): 6.4×10^−3 cm^2/Vs |
| CN1C(=O)c2cc3cc(-c4c5c(c(-c6cc7cc8c(cc7s6)C(=O)N(C)C8=O)c6nsnc46)N=S=N5)sc3cc2C1=O [Compound (22-1)] |  |  | n-type semiconductor characteristics |  | field-effect mobility (HMDS-modified substrate, vacuum deposition, drain voltage 100 V): 3.6×10^−4 cm^2/Vs; field-effect mobility (PS substrate, vacuum deposition, drain voltage 100 V): 5.2×10^−4 cm^2/Vs; field-effect mobility (PVP substrate, vacuum deposition, drain voltage 100 V): 3.6×10^−4 cm^2/Vs |
| CCCCC(CC)CN1C(=O)c2cc(-c3c4c(c(-c5cc6c(s5)C(=O)N(CC(CC)CCCC)C6=O)c5nsnc35)N=S=N4)sc2C1=O (centres unmarked) [Compound (12-EH)] | 2.0×10^−1 cm^2/Vs | 5.7×10^−1 cm^2/Vs | n-type semiconductor characteristics |  |  |
| CCCCCCCCCCCCN1C(=O)c2cc(-c3c4c(c(-c5cc6c(s5)C(=O)N(CCCCCCCCCCCC)C6=O)c5nsnc35)N=S=N4)sc2C1=O [Compound (12-12)] |  |  | n-type semiconductor characteristics | 7.3×10^−1 cm^2/Vs | field-effect mobility (PVP substrate, spin-coating 0.1 wt % in chloroform under nitrogen, heated 150° C. 35 min, drain voltage 100 V): 6.2×10^−1 cm^2/Vs |

Some entries repeat one wording, which the source may state once for all of them.
